Results deposited as PubChem BioAssay AID1053208 (Peter MacCallum Cancer Centre, 2014)
The deposit covers about 17,000 reagents; below is a part drawn at random. Over the whole deposit, 788 (4.7%) got an active call. 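Calls rest on z-score classes alone; an extra cut-off of viability at most 70% of control was not applied to them.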 Entries without a mark were called inactive.

Aim: 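Genes whose silencing cuts survival of bone tumour cells only with doxorubicin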 (primary screen)
Cell system: mouse osteosarcoma cells, early-passage culture from an engineered mouse model of fibroblastic bone tumour
Reagents: siRNA pool against mouse genes, 40 nM
Timing: about 120 h (48 h before drug, then 72 h with drug)
Conditions: doxorubicin 100 nM for 72 h, roughly 30-40% inhibitory dose
Detection: 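Luminescent ATP signal taken as viability with or without 100 nM doxorubicin for 72 h; mean of two wells set against non-targeting siRNA and turned into robust z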
Direction: viability z-score with doxorubicin and doxorubicin viability vs non-targeting: higher = more viable cells under doxorubicin; viability z-score without drug: higher = more viable cells with knock-down alone; z-score of drug to no-drug ratio: higher = less drug sensitisation by knock-down
Hit rule: 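a pool counts as active when its viability z-score with doxorubicin is -2 or below and its z-score without drug lies between -2 and 2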

| Target gene | combined z-score class | viability z-score with doxorubicin | viability z-score without drug | z-score of drug to no-drug ratio | doxorubicin viability vs non-targeting |
| --- | --- | --- | --- | --- | --- |
| Prps1 (phosphoribosyl pyrophosphate synthetase 1) | no change with or without drug | -0.45 | -0.51 | 0 | 0.9 |
| Rab22a (RAB22A, member RAS oncogene family) | no change with or without drug | 0.67 | 0.51 | 0.45 | 1 |
| Trem1 (triggering receptor expressed on myeloid cells 1) | no change with or without drug | -0.11 | -0.17 | 0.11 | 0.93 |
| Dlk1 (delta like non-canonical Notch ligand 1) | no change with or without drug | -0.67 | -1.18 | 0.22 | 0.88 |
| Sun2 (Sad1 and UNC84 domain containing 2) | no change with or without drug | -0.22 | 0.34 | -0.34 | 0.92 |
| Orai1 (ORAI calcium release-activated calcium modulator 1) | no change with or without drug | 1.12 | -1.35 | 2.47 | 1.04 |
| Lpar5 (lysophosphatidic acid receptor 5) | no change with or without drug | -0.22 | 0.51 | -0.45 | 0.92 |
| Bpifa1 (BPI fold containing family A, member 1) | low cell count with and without drug | -2.25 | -3.2 | -0.11 | 0.74 |
| Dipk2b (divergent protein kinase domain 2B) | no change with or without drug | -0.9 | -1.85 | 0.45 | 0.86 |
| Tbkbp1 (TBK1 binding protein 1) | low cell count with doxorubicin only (active) | -2.36 | -1.85 | -1.24 | 0.73 |
| Oog1 (oogenesin 1) | no change with or without drug | -0.11 | 0.17 | -0.11 | 0.93 |
| Metrnl (meteorin, glial cell differentiation regulator-like) | no change with or without drug | -0.9 | -0.51 | -0.56 | 0.86 |
| Fbxl12os (F-box and leucine-rich repeat protein 12, opposite strand) | high cell count without drug only | 1.01 | 2.02 | -0.22 | 1.03 |
| Calml4 (calmodulin-like 4) | no change with or without drug | -0.34 | -0.84 | 0.34 | 0.91 |
| Mrgpra7 (MAS-related GPR, member A7) | no change with or without drug | 0.67 | 0 | 0.79 | 1 |
| Or9i14 (olfactory receptor family 9 subfamily I member 14) | no change with or without drug | 0.45 | 0 | 0.56 | 0.98 |
| Nfe2 (nuclear factor, erythroid derived 2) | no change with or without drug | 0.67 | 1.52 | -0.22 | 1 |
| Klk7 | no change with or without drug | -0.67 | -1.35 | 0.34 | 0.88 |
| Stc2 (stanniocalcin 2) | no change with or without drug | 0.79 | 0.84 | 0.34 | 1.01 |
| Nwd1 (NACHT and WD repeat domain containing 1) | no change with or without drug | 0.45 | 0.51 | 0.22 | 0.98 |
| Or8a1b (olfactory receptor family 8 subfamily A member 1B) | no change with or without drug | -1.12 | -1.18 | -0.34 | 0.84 |
| Vmn1r229 (vomeronasal 1 receptor 229) | no change with or without drug | -0.67 | -0.17 | -0.45 | 0.88 |
| Ifna6 (interferon alpha 6) | high cell count with and without drug | 3.04 | 3.37 | 0.79 | 1.21 |
| Cdh5 (cadherin 5) | no change with or without drug | -0.9 | 0.84 | -1.35 | 0.86 |
| Scp2 | no change with or without drug | -1.12 | -0.84 | -0.56 | 0.84 |
| Gng4 (guanine nucleotide binding protein (G protein), gamma 4) | no change with or without drug | 0.45 | -0.17 | 0.67 | 0.98 |
| C1ql2 (complement component 1, q subcomponent-like 2) | no change with or without drug | 0.56 | 1.01 | 0 | 0.99 |
| Ngp (neutrophilic granule protein) | no change with or without drug | 0.9 | 1.18 | 0.22 | 1.02 |
| Nme1 (NME/NM23 nucleoside diphosphate kinase 1) | no change with or without drug | -0.11 | 0 | 0 | 0.93 |
| Gtf2i (general transcription factor II I) | no change with or without drug | 0.79 | 0 | 0.9 | 1.01 |
| Wsb2 (WD repeat and SOCS box-containing 2) | no change with or without drug | -0.9 | 0.51 | -1.12 | 0.86 |
| Dynll1 (dynein light chain LC8-type 1) | no change with or without drug | 1.12 | -0.17 | 1.46 | 1.04 |
| Clec2d (C-type lectin domain family 2, member d) | no change with or without drug | 0.9 | -0.17 | 1.24 | 1.02 |
| Ctnna2 (catenin alpha 2) | no change with or without drug | 0.11 | 0.84 | -0.34 | 0.95 |
| Trim62 (tripartite motif-containing 62) | low cell count with doxorubicin only (active) | -2.14 | -1.69 | -1.12 | 0.75 |
| Or1e1 (olfactory receptor family 1 subfamily E member 1) | no change with or without drug | -1.12 | 0.17 | -1.12 | 0.84 |
| Ints11 (integrator complex subunit 11) | no change with or without drug | -0.45 | 1.85 | -1.46 | 0.9 |
| Dnase1l2 (deoxyribonuclease 1-like 2) | no change with or without drug | 1.35 | 1.85 | 0.22 | 1.06 |
| Ncf4 (neutrophil cytosolic factor 4) | low cell count with doxorubicin only (active) | -2.92 | -1.69 | -2.02 | 0.68 |
| AI597479 (expressed sequence AI597479) | no change with or without drug | -0.34 | -1.85 | 1.12 | 0.91 |
| Dmp1 (dentin matrix protein 1) | low cell count with doxorubicin only (active) | -2.14 | 1.85 | -3.04 | 0.75 |
| Uba1y (ubiquitin-activating enzyme, Chr Y) | no change with or without drug | 0.45 | 0.51 | 0.22 | 0.98 |
| Tfam (transcription factor A, mitochondrial) | no change with or without drug | -1.01 | -1.52 | 0.11 | 0.85 |
| Atp6v1e1 (ATPase, H+ transporting, lysosomal V1 subunit E1) | no change with or without drug | -0.34 | 1.52 | -1.12 | 0.91 |
| Nrcam (neuronal cell adhesion molecule) | no change with or without drug | 0.11 | 0.34 | 0 | 0.95 |
| Hdlbp (high density lipoprotein (HDL) binding protein) | no change with or without drug | 0.22 | 0.51 | 0 | 0.96 |
| Trp53bp1 (transformation related protein 53 binding protein 1) | no change with or without drug | -0.79 | 0.17 | -0.79 | 0.87 |
| Eqtn (equatorin, sperm acrosome associated) | no change with or without drug | 0.22 | -1.52 | 1.57 | 0.96 |
| Cyp4a14 (cytochrome P450, family 4, subfamily a, polypeptide 14) | no change with or without drug | -0.56 | -0.17 | -0.34 | 0.89 |
| Mecp2 (methyl CpG binding protein 2) | no change with or without drug | 0.9 | -0.84 | 1.69 | 1.02 |

Sorted by “z-score of drug to no-drug ratio” (ascending): 7 of the entries above
| Target gene | combined z-score class | viability z-score with doxorubicin | viability z-score without drug | z-score of drug to no-drug ratio | doxorubicin viability vs non-targeting |
| --- | --- | --- | --- | --- | --- |
| Tbkbp1 (TBK1 binding protein 1) | low cell count with doxorubicin only (active) | -2.36 | -1.85 | -1.24 | 0.73 |
| Metrnl (meteorin, glial cell differentiation regulator-like) | no change with or without drug | -0.9 | -0.51 | -0.56 | 0.86 |
| Fbxl12os (F-box and leucine-rich repeat protein 12, opposite strand) | high cell count without drug only | 1.01 | 2.02 | -0.22 | 1.03 |
| Oog1 (oogenesin 1) | no change with or without drug | -0.11 | 0.17 | -0.11 | 0.93 |
| Calml4 (calmodulin-like 4) | no change with or without drug | -0.34 | -0.84 | 0.34 | 0.91 |
| Or9i14 (olfactory receptor family 9 subfamily I member 14) | no change with or without drug | 0.45 | 0 | 0.56 | 0.98 |
| Mrgpra7 (MAS-related GPR, member A7) | no change with or without drug | 0.67 | 0 | 0.79 | 1 |
